Here are results for 41 compounds from PubChem BioAssay AID493014 (National Center for Advancing Translational Sciences (NCATS), 2011).

Usually AC50 stands for the concentration at which the activity in the assay is half-maximal.

The list shows a part of the results. The main result of the screen is listed elsewhere. These columns were measured beside it and carry no call. Compounds called inactive in the main read-out are mostly missing here. The note in brackets gives the kind of curve behind each potency; many fits are weak.

The nature of this assay: qHTS Assay to Find Inhibitors of Chronic Active B-Cell Receptor Signaling. As to conditions: ABC-DLBCL IkBa-CBG/CBR reporter, luminescence ratio (green luciferase fused to IkBa over red control in TMD8 lymphoma cells), 4 h. The essentials:
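Compounds up to 46 uM were incubated four hours with TMD8 cells whose green CBG68 luciferase is fused to IkappaBalpha; red CBR luminescence normalised the signal, and concentration-effect curves were fitted to fusion, red and ratio data.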
In general terms: qHTS replaces the single test concentration by a dilution series.

The mark [1] stands for this setting: measured here: CBR red luminescence, cell number.
[2] abbreviates: measured here: IkBa-CBG green luminescence.

For `Cc1c(-c2ccccc2)[n+](=O)c(-c2ccc(Cl)cc2)c(C)n1[O-]`, the AC50 under setting [1] was 35.5 µM [rising, single point]. The same measure, in the same setting: for `Cc1ccccc1C1C2=C(Nc3[nH]n(-c4ccccc4)c(=O)c31)c1ccccc1C2=O` (stereo not drawn) the value was 29.1 µM [falling, single point]; for `O=C(N/N=C/c1cccnc1)c1ccccc1`, 12.6 µM [falling, partial curve]; for `COc1ccccc1/C=C/C(=O)NC(=S)Nc1ccccn1`, 15.8 µM [falling, partial curve]. Still for that read-out and setting: for `COc1ccc(-c2cc(=O)c3ccccc3o2)cc1` the value was 1.26 µM [rising, full curve, poor fit]. On the same count and under the same terms, for `O=C(CSc1ccc([N+](=O)[O-])cc1)Nc1cccc(S(=O)(=O)Nc2ccccc2F)c1` the value was 15.8 µM [falling, single point]; for `CCOc1ccccc1N1CCN(CC(=O)Nc2nnc(CC)s2)CC1`, 20.6 µM [falling, single point]; for `Cc1ccc(S(=O)(=O)Nc2nc(C)c(C(=O)NN)s2)cc1`, 10 µM [falling, partial curve, poor fit].

For `Fc1ccccc1C1c2[nH]c3ccccc3c2CCN1Cc1cccn1-c1ncccn1` (stereo not drawn), the concentration at half-maximal activity (AC50) under setting [1] is 20 µM [falling, partial curve, poor fit]. Still for that read-out and setting: for `O=C(CSc1ccccn1)C12CC3CC(CC(C3)C1)C2` the value was 10 µM [rising, partial curve]; for `CC(C)(C)NC[C@@H](O)COc1cccc2c1CCCC2=O`, 18.4 µM [rising, single point]; for `COc1ccc(C(CNC(=O)c2cncc(Br)c2)N(C)C)cc1` (stereo not drawn), 35.5 µM [falling, single point]. `O=C1CC(c2ccccc2)=NN1c1ccc([N+](=O)[O-])cc1`: the AC50 under setting [1] is 25.1 µM [falling, single point]. Consider `COc1cccc(NC(=O)COC(=O)c2c(F)cccc2Cl)c1`, for which the concentration at half-maximal activity (AC50) under setting [1] is 0.447 µM [falling, partial curve, poor fit]. Same read-out and setting: for `O=c1[nH]c(-c2ccc(-c3cccc(Cl)c3)o2)nc2ccccc12` the value was 0.13 µM [rising, full curve, poor fit]. Same read-out and setting: for `CC(C)(Oc1ccc(CCNC(=O)c2ccc(-c3ccc(Cl)cc3)o2)cc1)C(=O)O` the value was 15.8 µM [falling, partial curve, poor fit]; for `O=C(Cc1cccs1)NNC(=S)NC(=O)c1ccco1`, 22.4 µM [falling, partial curve]; for `O=C1C(=O)N(CC2COc3ccccc3O2)c2ccccc21` (stereo not drawn), 17.8 µM [rising, single point]. With `CCN1CCN(Cc2ccc(NC(=O)Nc3ccccc3OC)cc2)CC1`, the AC50 under setting [1] is 23.1 µM [falling, single point].

Take `Cc1occc1C(=O)N/N=C/c1ccc(Cl)c([N+](=O)[O-])c1`: the AC50 under setting [1] was 14.6 µM [falling, partial curve]. Still for that read-out and setting: for `CC(C)(C)S(=O)(=O)/C(C#N)=N/Nc1ccc(C#N)cc1` the value was 35.5 µM [rising, single point]; for `COc1ccc(CNC(=O)C[C@H]2C(=O)N(c3ccccc3)C[C@@H]2Cc2ccccc2)cc1`, 17.8 µM [falling, partial curve, poor fit]. Same read-out and setting: for `Cc1ccc(S(=O)(=O)N/N=C/c2cccc([N+](=O)[O-])c2)cc1` the value was 14.6 µM [falling, partial curve, poor fit].

For the compound `COCCN1CCN(C(=O)C2CCC(=O)N(Cc3ccccc3F)C2)CC1` (stereo not drawn), the half-maximal activity concentration (AC50) under setting [1] is 5.62 µM [rising, single point]. Consider `CCC(C)(C)n1nnnc1C(c1ccc(O)c(OC)c1)N1CCc2ccccc2C1` (stereo not drawn), for which the half-maximal activity concentration (AC50) under setting [1] is 7.94 µM [falling, partial curve]. On the same count and under the same terms, for `CN1CCC(N(C)S(=O)(=O)c2ccc(NC(=O)COc3ccc(Br)cc3Cl)cc2)CC1` the value was 29.1 µM [falling, single point]; for `CCCCN(C)CCNC(=O)c1cc2c(-c3ccccc3F)nn(C)c2s1`, 17.8 µM [falling, single point]; for `Cc1cc(NC(=O)CSc2nnc(-c3ccc(Cl)s3)o2)no1`, 10 µM [rising, partial curve]. For `CC(=O)Nc1ccc(S(=O)(=O)N2c3ccccc3C(C)=CC2(C)C)cc1`, the half-maximal activity concentration (AC50) is 7.94 µM [rising, partial curve, poor fit] under setting [1] and 4.47 µM [falling, full curve] under setting [2]. For the compound `Cc1ccc(CNC(=O)c2c[nH]c3ccc(S(=O)(=O)Nc4ccc(C(C)C)cc4)cc3c2=O)cc1`, under setting [1], the half-maximal activity concentration (AC50) was 22.4 µM [falling, single point].

Consider `COc1cc(Cl)c(C)cc1NC(=O)CN1CCCCCC1`, for which, under setting [1], the concentration at half-maximal activity (AC50) was 20 µM [falling, partial curve].

In the case of `Cc1ccc(/C=N/NC(=O)c2nnn(-c3nonc3N)c2C)o1`, under setting [1], the half-maximal activity concentration (AC50) is 0.562 µM [rising, full curve, poor fit]. For the compound `CCCNc1nc(-c2ccccc2)c(C(=O)OCC)cc1C#N`, the AC50 under setting [1] was 25.9 µM [rising, partial curve] and the AC50 under setting [2] was 16.4 µM [falling, partial curve]. On to `COc1ccc(CCNC(=O)c2ccc(COc3ccccc3OC)o2)cc1`, for which, under setting [1], the half-maximal activity concentration (AC50) is 11.2 µM [falling, partial curve].

Consider `CCC(Sc1nc2ccc(C)cc2[nH]1)C(=O)O` (stereo not drawn), for which, under setting [1], the concentration at half-maximal activity (AC50) was 2.06 µM [rising, full curve, poor fit].

Consider `COc1ccc2c(c1)c(=O)oc1cc(O)ccc12`, for which, under setting [1], the AC50 is 12.6 µM [rising, partial curve, poor fit].

For the compound `C=CCN1C(=O)CSc2ccc(C(=O)NC3CCCCC3)cc21`, under setting [1], the concentration at half-maximal activity (AC50) is 11.2 µM [falling, partial curve].

Regarding `COc1cc(C(C(=O)NC(C)(C)C)N(C(=O)CNC(=O)c2cccs2)c2cccnc2)cc(OC)c1OC` (stereo not drawn), the AC50 under setting [1] was 7.94 µM [rising, partial curve]. For the compound `CCCc1nnc(NC(=O)C23CC4CC(CC(C4)C2)C3)s1`, the concentration at half-maximal activity (AC50) under setting [1] was 14.1 µM [falling, partial curve, poor fit].

Regarding `O=C(Nc1ccccc1)C1=C[C@H](c2csc3ccccc23)C[C@H](OCCCCO)O1`, under setting [1], the concentration at half-maximal activity (AC50) is 20 µM [falling, partial curve, poor fit].

Consider `COc1ccc(C2NCCc3cc(OC)c(OC)cc32)cc1OC` (stereo not drawn), for which the AC50 under setting [1] was 11.2 µM [rising, partial curve].
